From PMC5626712
No constants are given. Whether binding was seen depends on the method and setting. Binding calls can cover weak binding; strength is not graded here. For part of these data: Tags and fused reporters may be left off the sequences shown. For part of these data: Binding seen in cells or lysates may run through a third protein.

The chains behind the UniProt entries cited, without tags or fusion partners. Where a name states a change or a piece, a line headed by the entry shows the natural chain unless it says otherwise.
UniProt O35235: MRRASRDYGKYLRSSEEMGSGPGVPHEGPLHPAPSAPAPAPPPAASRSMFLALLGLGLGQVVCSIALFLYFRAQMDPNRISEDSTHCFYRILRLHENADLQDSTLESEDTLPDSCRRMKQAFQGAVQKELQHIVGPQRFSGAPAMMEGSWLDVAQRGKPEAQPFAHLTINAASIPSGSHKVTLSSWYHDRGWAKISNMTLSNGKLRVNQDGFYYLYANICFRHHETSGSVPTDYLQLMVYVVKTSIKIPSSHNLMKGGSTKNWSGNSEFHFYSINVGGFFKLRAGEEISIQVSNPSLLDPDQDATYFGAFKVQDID
UniProt P01375: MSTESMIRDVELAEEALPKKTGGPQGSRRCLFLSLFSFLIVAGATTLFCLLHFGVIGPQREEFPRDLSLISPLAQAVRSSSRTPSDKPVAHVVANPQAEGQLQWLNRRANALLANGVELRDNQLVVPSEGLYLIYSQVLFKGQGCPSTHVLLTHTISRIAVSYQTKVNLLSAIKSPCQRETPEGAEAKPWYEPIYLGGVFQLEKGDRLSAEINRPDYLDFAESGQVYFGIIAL

Assays:
[1] = molecular target: T1, C-terminal MYC/DDK Fmod (fibromodulin) (UniProt Q06828); assay: ELISA; solid-phase binding assay: bait bound to nickel-coated or anti-FLAG M2-coated plates (2 h, 37 °C), blocked with 0.1–1% BSA/TBS, increasing concentrations of prey at 4 °C overnight, prey detected with primary antibody and HRP secondary, read at 450 nm; both purified
T1 sequence: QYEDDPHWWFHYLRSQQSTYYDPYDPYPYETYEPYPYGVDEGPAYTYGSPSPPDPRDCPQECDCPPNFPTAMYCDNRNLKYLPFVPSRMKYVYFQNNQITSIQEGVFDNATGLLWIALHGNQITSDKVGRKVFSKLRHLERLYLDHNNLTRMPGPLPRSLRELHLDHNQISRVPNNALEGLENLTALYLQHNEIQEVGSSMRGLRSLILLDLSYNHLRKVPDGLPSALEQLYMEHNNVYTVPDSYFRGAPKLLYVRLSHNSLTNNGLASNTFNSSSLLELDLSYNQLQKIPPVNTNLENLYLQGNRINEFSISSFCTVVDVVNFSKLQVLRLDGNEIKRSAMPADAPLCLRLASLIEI

[2] = molecular target: T2, His-tagged PG-Bgn (biglycan proteoglycan form, with GAG chains) (UniProt P21810); assay: as above
T2 sequence (chain, GAG chains (GAG-chain supplemented form of Bgn)): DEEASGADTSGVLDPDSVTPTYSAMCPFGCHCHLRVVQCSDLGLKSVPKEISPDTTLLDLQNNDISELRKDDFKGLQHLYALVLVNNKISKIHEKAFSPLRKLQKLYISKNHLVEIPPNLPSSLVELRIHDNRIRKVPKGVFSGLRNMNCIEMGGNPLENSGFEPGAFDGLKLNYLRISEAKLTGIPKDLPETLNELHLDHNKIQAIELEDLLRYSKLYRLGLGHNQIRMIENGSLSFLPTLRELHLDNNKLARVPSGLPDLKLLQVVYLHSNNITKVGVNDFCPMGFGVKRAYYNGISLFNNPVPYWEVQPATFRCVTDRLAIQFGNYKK

Bgn core protein [3] = molecular target: T3, Bgn core protein (UniProt P21810); assay: pull-down; called coIP by the paper: constant His-tagged bait incubated with increasing concentrations of prey for 5 h at RT, bound to nickel-charged His-Bind resin at 4 °C overnight, washed, eluted by boiling, prey detected by western blot; both purified
T3 sequence: T2 sequence (chain, GAG chains (GAG-chain supplemented form of Bgn))

Bgn core protein [4] = molecular target: T3, Bgn core protein; assay: ELISA; solid-phase binding assay: bait bound to nickel-coated or anti-FLAG M2-coated plates (2 h, 37 °C), blocked with 0.1–1% BSA/TBS, increasing concentrations of prey at 4 °C overnight, prey detected with primary antibody and HRP secondary, read at 450 nm; both purified

Measured: binding

Receptor activator of NF-κB ligand (RANKL) (from UniProt O35235)
binds: [1] | [2]

Tumor necrosis factor alpha (TNFα), used as prey (added in increasing concentrations) (from UniProt P01375) (ligand)
binds: all assays above
